The record followed here is paper PMC9283393.

Amino acid sequences for entries named in this document (tags omitted). A change or cut given only in a name is not applied to a line headed by its entry. Residues count along the entry.
UniProt O14964: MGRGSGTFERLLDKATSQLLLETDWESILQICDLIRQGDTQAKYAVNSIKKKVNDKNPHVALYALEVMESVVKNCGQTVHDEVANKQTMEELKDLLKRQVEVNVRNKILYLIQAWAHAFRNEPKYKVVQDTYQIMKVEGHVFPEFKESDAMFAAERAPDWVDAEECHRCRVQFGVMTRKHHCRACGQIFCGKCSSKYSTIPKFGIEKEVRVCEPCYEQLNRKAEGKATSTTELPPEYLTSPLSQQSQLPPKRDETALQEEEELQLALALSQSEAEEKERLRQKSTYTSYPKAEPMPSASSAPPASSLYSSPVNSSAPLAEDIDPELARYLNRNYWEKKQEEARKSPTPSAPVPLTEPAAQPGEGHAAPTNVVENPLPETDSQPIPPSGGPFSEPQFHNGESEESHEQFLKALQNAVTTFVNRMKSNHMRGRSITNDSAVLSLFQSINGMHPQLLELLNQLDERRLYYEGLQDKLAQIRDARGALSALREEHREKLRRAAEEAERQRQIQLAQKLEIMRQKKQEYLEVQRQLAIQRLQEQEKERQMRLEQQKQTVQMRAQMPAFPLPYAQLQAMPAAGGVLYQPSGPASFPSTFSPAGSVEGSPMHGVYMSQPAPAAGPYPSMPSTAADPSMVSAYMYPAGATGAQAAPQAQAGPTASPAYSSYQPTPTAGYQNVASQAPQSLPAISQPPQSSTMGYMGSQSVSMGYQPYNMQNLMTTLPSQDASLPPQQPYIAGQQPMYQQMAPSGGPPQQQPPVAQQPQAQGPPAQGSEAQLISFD
UniProt Q9NZQ7, residues 19-290: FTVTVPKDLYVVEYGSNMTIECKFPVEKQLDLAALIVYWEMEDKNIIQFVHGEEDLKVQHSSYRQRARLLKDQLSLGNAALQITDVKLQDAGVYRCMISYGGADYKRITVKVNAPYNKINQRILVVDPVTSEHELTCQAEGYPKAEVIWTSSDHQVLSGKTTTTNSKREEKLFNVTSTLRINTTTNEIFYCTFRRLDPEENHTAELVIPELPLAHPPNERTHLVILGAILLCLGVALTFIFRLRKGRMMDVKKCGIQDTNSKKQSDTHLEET

The experiment concerns the target Flag-tagged HRS fragment with further deletion of a.a. 276–478 (UniProt O14964). As to the kind of experiment: co-IP; cells expressing PD-L1 and Flag-tagged full-length HRS or fragments; anti-Flag immunoprecipitation; western blot of bound PD-L1. For orientation: In western blotting, separated proteins are transferred to a membrane and probed.

Results are given in words; binding and its absence hold for the method and conditions named. Binding seen in cells or lysates may run through a third protein.

“PD-L1 (expressed together with Flag-HRS constructs, Fig. 3j) (from UniProt Q9NZQ7 19-290)”: the binding result is “no binding”.
